# Results from PubChem BioAssay AID504465 (National Center for Advancing Translational Sciences (NCATS), 2011).
# About 210 (10%) of roughly 2,100 compounds were called active. The shares of active, inactive and inconclusive entries below differ from those in the screen. Calls come from the whole dose curve; as a rule, active = well fitted inhibition curve with a large enough effect; inconclusive = small, poorly fitted or top-dose-only effect, or effect the other way; inactive = no such curve, though single readings can be large or run the other way. Potencies of inconclusive entries are doubtful fits and often do not repeat.
# Test: IN Cell qHTS Assay for Inhibitors of the mTORC1 Signaling Pathway in MEF (Tsc2-/-, p53-/-) Cells: Sytravon; note: nearly all actives have a fitted effect of over 60% in size
# Settings: phospho-rpS6 immunofluorescence, 24 h; series mostly up to 38.3 µM; activity, negative = inhibition: at the top concentration
# Excerpt: NIH Molecular Libraries Probe Production Centers Network [MLPCN] NIH Chemical Genomics Center [NCGC] MLPCN Grant: NS059428-01 Assay Submitter (PI): Blenis, John; Hoffman, Greg; Harvard University NCGC Assay Overview: Thee mammalian target of rapamycin (mTOR) is an intracellular serine/threonine kinase Aberrant regulation of mTOR signaling plays a causative role in a number of human diseases, including cancer, benign tumors such as lymphangioleiomyomatosis (LAM) and Tuberous Sclerosis Complex (TSC), and metabolic diseases such as diabetes and obesity. This project aims to identify inhibitors of ribosomal protein S6 (rpS6) phosphorylation. The phosphorylation of rpS6 is a key event downstream of mTOR activation. The assay uses a phospho-specific antibody of phospho-rpS6 to detect inhibitors of mTOR activation. Mutations in the Tsc1 and Tsc2 genes are the underlying genetic lesions responsible for TSC, causing constitutive activation of the mTORC1 pathway and leading to profound effects on cell metabolism. Aberrant metabolism in cancer has recently received significant attention as a target to develop therapeutic agents in the treatment of cancer1. As Tsc2-/- cells have lost the ability to respond to energy and growth factor deprivation, these cells are unable to properly down regulate cellular biosynthetic processes in response to metabolic stress, and are thus extremely sensitive to glucose deprivation-induced death.2 A central goal of this project is to explore the unique cell survival and metabolic properties of cells with Tsc1 or Tsc2 by screening for compounds that selectively target the Tsc2-/- MEFs by screening both Tsc2-/- and WT MEF cell lines. We hope to better understand these aspects of TSC physiology in order to exploit them for therapeutic benefit.
# NCGC IN Cell Assay Protocol: For quantitative high throughput analysis of mTORC1 signaling, we developed a cell-based assay for immuno-fluorescence based detection of rpS6 phosphorylation on the Acumen Explorer that will be used a platform for the primary small molecule screen. Mouse embryonic fibroblasts (MEFs) are cultured in 1536-well plates using DMEM + 10% FBS. Twenty-four hrs after plating, test compounds (solubilized in DMSO) are delivered and incubated with the cells for 24 hrs at 37 degree Celsius. Following the incubation, media with compound is aspirated and the cells are fixed in 4% paraformaldehyde (PFA) containing PBS + 0.2% TX-100. Next, PFA is aspirated, cells are washed two times with PBS plus 0.2% TX-100 and the cells are blocked for 1 hr at room temperature (blocking buffer: LiCOR Blocking Buffer plus 0.2% TX-100). This is followed by aspiration and staining with Alexa-488 conjugated-phospho-rpS6 Ser235/236 antibody for 2 hours at room temperature (Cell Signaling Technology # 4803, 1:50 dilution in blocking buffer). Cells are washed two times with PBS plus 0.2% TX-100, and stained with 10 uM propidium iodide (PI) for 20-25 minutes for cell number measurement (1:500 dilution of Hoescht staining is also added for IN Cell imaging). Active wells which are selected (based on Acumen results) are imaged on the IN Cell 1000 (GE Healthcare) using the D360/40X and HQ480/40X excitation filters for the Hoechst and Alexa-488 cytoplasmic stains, respectively. The fluorescence emission filters used were HQ460/40M and HQ535/50M for the Hoechst and Alexa-488 cytoplasmic stains, respectively. The normalized phospho-S6 staining is calculated as the ratio of […] for the single concentration rapamycin control (7.5 nM) and DMSO columns. […] Inhibition of the pathway is defined based on the normalized phospho-S6 intensity in rapamycin treated cells. Each treatment is reported as the % positive cells in the well, where thresholds are defined by selecting wells with the highest and lowest signal and differentiating between the % non-active and % active populations. […]
# Potency is the fitted concentration of half-maximal effect.
Structure (SMILES),Potency,"activity, negative = inhibition"
Cc1ccc(CNC(=O)CCCn2c(=O)c3sccc3n(CC(=O)Nc3c(C)cccc3C)c2=O)cc1,"inconclusive: 6.56 µM [falling, partial curve, poor fit]",–
COc1ccc(OCC(=O)N2CCN(CCc3ccccn3)CC2)cc1,"inconclusive: 2.33 µM [falling, full curve, poor fit]",–
O=C(c1ccccc1)c1ccc2nc(N3CCN(c4ccc(F)cc4)CC3)c3nncn3c2c1,"inconclusive: 0.0736 µM [falling, full curve, poor fit]",–
CCc1ccc(-n2nc(C)c3c2NC(=O)CSC3c2ccc(OC)cc2OC)cc1 (stereo not drawn),–,inactive: -11.9%
CCc1ccc(CNC(=O)c2ccc3c(c2)N=C(C)c2cc(C)ccc2S3)cc1,"inconclusive: 26.1 µM [falling, single point]",–
Nc1c(C(=O)Nc2ccc(OC(F)(F)F)cc2)sc2nc3c(cc12)N1CCC3CC1,"inconclusive: 14.7 µM [falling, single point]",–
CC(=O)N1CCc2cc(S(=O)(=O)N3CCN(c4ccc(C)cc4)C(C)C3)ccc21 (stereo not drawn),"inconclusive: 0.521 µM [falling, full curve, poor fit]",–
CCCCOc1ccc(CN2C(=O)C(=O)c3cc(C)ccc32)cc1OC,"inconclusive: 23.3 µM [falling, partial curve, poor fit]",–
Cc1oc(-c2ccc(Cl)cc2)nc1CN1CCC(C(=O)NCCCN2CCN(c3cccc(Cl)c3)CC2)CC1,"inconclusive: 26.1 µM [falling, single point]",–
CCOc1ccc(NC(=O)c2cc3c(C)nn(-c4ccccc4)c3s2)cc1,active: 14.7 µM,–
Cc1ccc2oc(-c3ccc(Cl)cc3)c(O)c(=O)c2c1,"inconclusive: 26.1 µM [falling, partial curve, poor fit]",–
O=c1oc2ccccc2cc1-c1cn2cc(Cc3ccc(F)cc3)sc2n1,active: 1.65 µM,–
Cc1cccc(CN2CC=C(c3noc(CCC(=O)Nc4ccc(C)c(F)c4)n3)CC2)c1,–,inactive: -8.33%
CC(C)c1ccc2oc(-c3ccc(NC(=O)c4cc5ccccc5o4)cc3)nc2c1,"inconclusive: 5.21 µM [falling, single point]",–
CCOc1ccc(-c2nc3cc(NC(=O)COc4cccc(C)c4)ccc3o2)cc1,"inconclusive: 18.5 µM [falling, partial curve]",–
Cc1c(Cl)cccc1NC(=O)c1oc2ccc(S(=O)(=O)N3CCC4(CC3)OCCO4)cc2c1C,"inconclusive: 5.85 µM [falling, partial curve, poor fit]",–
CCOC(=O)c1ccc(N2C(=O)c3n[nH]c(-c4cccs4)c3C2c2ccc(Cl)cc2Cl)cc1 (stereo not drawn),"inconclusive: 2.61 µM [activator, single point]",–

Structure (SMILES),Potency,"activity, negative = inhibition"
COc1ccc(CNC(=O)Cn2c(SCC(=O)Nc3ccc(C)c(C)c3)nc3ccccc32)cc1,"inconclusive: 23.3 µM [falling, single point]",–
COc1cccc(-c2cc(C(=O)Nc3cnn(Cc4ccc(Cl)cc4Cl)c3)no2)c1,"inconclusive: 10.4 µM [falling, single point]",–
CCCC1=Nc2cc(C(=O)NCCCN(CC)CC)ccc2Sc2ccccc21,"inconclusive: 26.1 µM [falling, single point]",–
COc1ccc2nc(NC(=O)c3nc(S(=O)(=O)Cc4cccc(C)c4)ncc3Cl)sc2c1,active: 16.5 µM,–
CCOc1ccc(N(C(C)C(=O)Nc2cc(Cl)ccc2OC)S(C)(=O)=O)cc1 (stereo not drawn),"inconclusive: 0.464 µM [falling, full curve, poor fit]",–
CCOC(=O)C1=C(CN2CCN(c3ccc(C)cc3C)CC2)NC(=O)NC1c1ccc(OC)cc1 (stereo not drawn),"inconclusive: 14.7 µM [falling, single point]",–
O=C(Nc1ccccc1)N(Cc1ccc2c(c1)OCO2)C1CCN(Cc2ccccc2)CC1,–,inactive: -11.5%
CCOc1ccc(NC(=O)c2cccn(Cc3cccc(Cl)c3)c2=O)cc1,–,inactive: -20.2%
COC(=O)c1ccccc1NC(=O)c1cc(-c2ccccc2O)no1,"inconclusive: 18.5 µM [falling, partial curve, poor fit]",–
CCCOC(=O)c1c(C)oc2c1cc(NS(=O)(=O)c1ccc(OCC)cc1)c1ccccc12,"inconclusive: 3.69 µM [falling, full curve, poor fit]",–
COc1ccc(N2CCN(C(=O)C3CCCN(S(=O)(=O)c4ccc5c(c4)CCCN5C(C)=O)C3)CC2)cc1 (stereo not drawn),"inconclusive: 0.233 µM [falling, full curve, poor fit]",–
Cc1ccc(NC(=O)CSc2nc(-c3ccco3)cc(C(F)(F)F)n2)c(C)c1,"inconclusive: 0.233 µM [falling, full curve, poor fit]",–
Cc1ccccc1Nc1c(-c2ccc(Br)cc2O)nc2sccn12,"inconclusive: 0.0093 µM [activator, full curve, poor fit]",–
CC(C)c1ccc(Cc2cn3cc(-c4cc5ccccc5oc4=O)nc3s2)cc1,"inconclusive: 0.656 µM [falling, partial curve, poor fit]",–
O=C(C1CCN(S(=O)(=O)c2ccc(Br)s2)CC1)N1CCN(c2ccc(F)cc2)CC1,"inconclusive: 5.85 µM [falling, partial curve, poor fit]",–
Cc1ccc(NC(=O)N(Cc2ccc3c(c2)OCO3)C2CCN(Cc3ccccc3)CC2)cc1C,"inconclusive: 0.369 µM [falling, full curve, poor fit]",–

# In a second layout: seven of the compounds above.
Structure (SMILES) | Potency | activity, negative = inhibition
COc1cccc(-c2cc(C(=O)Nc3cnn(Cc4ccc(Cl)cc4Cl)c3)no2)c1 | inconclusive: 10.4 µM [falling, single point] | –
CCCC1=Nc2cc(C(=O)NCCCN(CC)CC)ccc2Sc2ccccc21 | inconclusive: 26.1 µM [falling, single point] | –
COc1ccc2nc(NC(=O)c3nc(S(=O)(=O)Cc4cccc(C)c4)ncc3Cl)sc2c1 | active: 16.5 µM | –
CCOc1ccc(N(C(C)C(=O)Nc2cc(Cl)ccc2OC)S(C)(=O)=O)cc1 (stereo not drawn) | inconclusive: 0.464 µM [falling, full curve, poor fit] | –
CCOC(=O)C1=C(CN2CCN(c3ccc(C)cc3C)CC2)NC(=O)NC1c1ccc(OC)cc1 (stereo not drawn) | inconclusive: 14.7 µM [falling, single point] | –
O=C(Nc1ccccc1)N(Cc1ccc2c(c1)OCO2)C1CCN(Cc2ccccc2)CC1 | – | inactive: -11.5%
CCOc1ccc(NC(=O)c2cccn(Cc3cccc(Cl)c3)c2=O)cc1 | – | inactive: -20.2%
